# From PubChem BioAssay AID493014 (National Center for Advancing Translational Sciences (NCATS), 2011)
# The list shows a part of the results. The main result of the screen is listed elsewhere. These columns were measured beside it and carry no call. Most of these compounds were active or inconclusive in the main read-out, so they are no random draw. The note in brackets gives the kind of curve behind each potency; many fits are weak.
# Assay: qHTS Assay to Find Inhibitors of Chronic Active B-Cell Receptor Signaling
# Conditions: ABC-DLBCL IkBa-CBG/CBR reporter, luminescence ratio (green luciferase fused to IkBa over red control in TMD8 lymphoma cells), 4 h
# Method in brief: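 TMD8 ABC-DLBCL cells carrying doxycycline-inducible green luciferase fused to IkappaBalpha plus unfused red luciferase were exposed to compounds (up to 46 uM) for 4 hrs at 37C. Activity came from the overlap-corrected green/red luminescence ratio.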
# [1] = measured here: CBR red luminescence, cell number
# [2] = measured here: IkBa-CBG green luminescence
smiles,measurement,setting,value
O=C(NCCc1cccs1)c1ccc(Cl)c(Cl)c1,AC50,[1],"11.2 µM [falling, partial curve]"
NC(N)=Nc1ccc2[nH]c3c(c2c1)C[C@@]1(O)[C@H]2Cc4ccc(O)c5c4[C@@]1(CCN2CC1CC1)[C@H]3O5,AC50,[2],"18.4 µM [falling, single point]"
CCn1cc(C=C2C(=O)NC(=O)NC2=O)c2ccccc21,AC50,[1],"6.31 µM [rising, partial curve, poor fit]"
CCOP(=O)(c1ccc(N(C)C)cc1)C(O)c1c(Cl)cccc1Cl (stereo not given),AC50,[1],"3.66 µM [falling, partial curve]"
COc1ccc2oc3c(c2c1)NC(=O)CN=C3c1ccccc1,AC50,[1],"0.447 µM [rising, partial curve, poor fit]"
Cc1ccc2c(c1)C1CN(C)CCC1N2C(=O)Nc1cccc(C(F)(F)F)c1 (stereo not given),AC50,[1],"6.51 µM [falling, single point]"
COC(=O)C1=C(c2ccc(-c3ccccc3)c(F)c2)C[C@@H]2CC[C@H]1N2C(=O)NCCOc1ccc(OC)cc1,AC50,[1],"10.3 µM [falling, partial curve]"
COC(=O)C1=C(c2ccc(Cl)c(C(F)(F)F)c2)C[C@@H]2CC[C@H]1N2C(=O)NCCOc1ccccc1Cl,AC50,[1],"11.6 µM [falling, partial curve, poor fit]"
Nc1ccccc1C(=O)OCc1ccc([N+](=O)[O-])cc1,AC50,[1],"6.31 µM [rising, partial curve, poor fit]"
Cc1c(C(c2ccc(O)cc2)c2c(O)c3ccccc3oc2=O)c(=O)n(-c2ccccc2)n1C (stereo not given),AC50,[1],"9.2 µM [falling, partial curve]"
COc1cccc(CN2CC=C(c3ccc(F)cc3)CC2)c1,AC50,[1],"12.6 µM [rising, partial curve, poor fit]"
N[C@@H](Cc1c[nH]c2ccccc12)c1nnc(SCc2ccccc2F)o1,AC50,[1],"6.31 µM [rising, single point]"
Cn1c(O)c(C(=NCCc2c[nH]c3ccccc23)c2ccccc2)c(=O)n(C)c1=O,AC50,[1],"22.4 µM [falling, single point]"
CCOC(=O)C1(CCc2ccccc2)CCN(Cc2cccc3cnccc23)CC1,AC50,[1],"11.2 µM [rising, partial curve, poor fit]"
CCn1nc(-c2ccccc2)nc2c(=O)n(C)c(=O)nc1-2,AC50,[1],"5.8 µM [falling, full curve]"
same,AC50,[2],"4.61 µM [rising, partial curve, poor fit]"
Cc1ccc(C(=O)NNC(=O)c2cc3ccccc3cc2O)cc1,AC50,[1],"11.2 µM [falling, partial curve]"
Cc1ccc(NP(=O)(Oc2ccccc2F)Oc2ccccc2F)cc1C,AC50,[1],"29.1 µM [falling, single point]"
Cc1cc(C(C#N)c2ccc(Cl)cc2)c(Cl)cc1NC(=O)c1cc(I)cc(I)c1O (stereo not given),AC50,[1],"4.11 µM [falling, partial curve, poor fit]"
CC(C)(C)c1cc(C=C(C#N)C#N)cc(C(C)(C)C)c1O,AC50,[1],"3.26 µM [falling, full curve]"
COc1ccc(-[n+]2c(-c3ccccc3)cc(-c3ccccc3)cc2-c2ccccc2)cc1,AC50,[1],"11.6 µM [falling, partial curve]"
same,AC50,[2],"23.1 µM [rising, partial curve, poor fit]"
CCOP(=O)(OCC)c1cc(CC)ccc1O,AC50,[1],"14.1 µM [rising, partial curve, poor fit]"
O=C(NCC1CCCCC1)c1cc2ccccc2cc1O,AC50,[1],"10 µM [falling, single point]"
Cc1nc(-c2ccc(Cl)cc2)sc1C(=O)O,AC50,[1],"3.16 µM [falling, full curve]"
COc1cccc(C2(O)CCSCC2CN(C)C)c1 (stereo not given),AC50,[1],"2.59 µM [rising, single point]"
C[C@@H]1C[C@@H]([C@H](O)CC2CC(=O)NC(=O)C2)C(=O)[C@@H](C)C1,AC50,[1],"1.16 µM [falling, full curve]"
same,AC50,[2],"8.2 µM [rising, partial curve, poor fit]"
Cc1ccc(-n2c(/C=C/c3ccccc3)nc3ccccc3c2=O)cc1C,AC50,[1],"1.26 µM [rising, full curve]"
CCCCN1C(=O)NC(=O)C2(Cc3c(nc4c(C)cccn4c3=O)N3CCc4ccccc4C32)C1=O (stereo not given),AC50,[1],"0.82 µM [falling, full curve, poor fit]"
same,AC50,[2],"0.82 µM [rising, full curve, poor fit]"
COc1ccc(C2NCc3ccc4c(c3-n3cccc32)OCO4)cc1O (stereo not given),AC50,[1],"18.4 µM [falling, single point]"
O=C(CSc1ccccn1)Nc1ccc(N2CCOCC2)cc1,AC50,[1],"28.2 µM [rising, single point]"
CCCCn1c(=O)c(C=Nc2cc([N+](=O)[O-])ccc2OC)c(O)n(CCCCl)c1=O,AC50,[1],"0.461 µM [rising, full curve, poor fit]"
COc1ccc(C(=O)Nc2nc3ccccc3s2)c(OC)c1,AC50,[1],"0.126 µM [falling, full curve]"
CCOC(=O)c1c(C)n(C(C)C)c2ccc(OC(=O)c3ccc(N4C(=O)CCC4=O)cc3)cc12,AC50,[1],"2.91 µM [rising, full curve]"
COc1cc(C)cc(CN2CC=C(c3ccccc3)CC2)c1O,AC50,[1],"7.94 µM [rising, partial curve]"
Cc1ccnc(-n2c(-c3ccco3)nc3ccccc3c2=O)c1,AC50,[1],"2.06 µM [rising, single point]"
COc1ccc(CNCCc2c(C)[nH]c3ccc(OC(F)(F)F)cc23)c(OC)c1,AC50,[1],"15.8 µM [falling, partial curve, poor fit]"
Cc1ccc(C(=O)O)cc1NS(=O)(=O)c1ccc2c(c1)oc(=O)n2C,AC50,[1],"11.2 µM [falling, single point]"
COc1cc(C(O)CN)ccc1O (stereo not given),AC50,[1],"16.4 µM [falling, partial curve]"
O=c1[nH]c(=O)n(Cc2ccco2)c(O)c1C=NC1CCN(Cc2ccccc2)CC1,AC50,[1],"10 µM [rising, partial curve, poor fit]"
COCCNC(=O)c1c(N)n(CCC(C)C)c2nc3ccccc3nc12,AC50,[1],"1.46 µM [falling, partial curve, poor fit]"
O=C1Nc2ccccc2C1Cc1nc2ccccc2c(=O)n1-c1ccccc1 (stereo not given),AC50,[1],"17.8 µM [falling, single point]"
C/C(=N\Nc1nc(C)c(C)s1)c1ccc([N+](=O)[O-])cc1,AC50,[1],"10 µM [rising, partial curve]"
CCC(=O)Nc1c(C(=O)Nc2ccc3c(c2)OCCO3)oc2ccccc12,AC50,[1],"3.16 µM [falling, partial curve, poor fit]"
O=C(c1cccnc1)C1CCCN(Cc2nc(-c3cnccn3)no2)C1 (stereo not given),AC50,[1],"3.98 µM [rising, partial curve, poor fit]"
Cc1cc(C(=O)OCC(=O)Nc2ccc(F)cc2F)c(C)n1C1CC1,AC50,[1],"3.26 µM [falling, partial curve, poor fit]"
C[C@]12CC[C@H](O)CC1=CCC1C2CC[C@]2(C)C(=O)[C@H](Br)CC12 (stereo not given in full),AC50,[1],"23.1 µM [falling, partial curve]"
O=c1[nH]c(=O)n(-c2cccc(F)c2)c(O)c1/C=C1\C=Nc2ccccc21,AC50,[1],"14.1 µM [falling, single point]"
COc1ccc(C(=O)CC2(CC(=O)c3ccc(OC)cc3)C(=O)N(C)C(=O)N(C)C2=O)cc1,AC50,[1],"0.58 µM [rising, full curve, poor fit]"
Cn1ccc(NC(=O)CCl)n1,AC50,[1],"15.8 µM [falling, single point]"
CN(C)c1nc(N(C)C)nc(N(C#N)CCCl)n1,AC50,[1],"35.5 µM [falling, single point]"
COc1cc2c(c(OC)c1OC)-c1ccc(O)c(=O)cc1C(NC(C)=O)CC2 (stereo not given),AC50,[1],"1.12 µM [rising, full curve, poor fit]"
same,AC50,[2],"0.126 µM [falling, full curve, poor fit]"
Cc1cccc(CN2C(=O)CN=C(c3ccccc3Cl)c3cc(Cl)ccc32)c1,AC50,[1],"12.6 µM [falling, single point]"
CCn1c(O)c(C(=O)CC2NCCc3ccccc32)c(=O)n(CC)c1=S (stereo not given),AC50,[1],"1.58 µM [rising, partial curve, poor fit]"
CCOC(=O)c1c(NC(=O)/C=C\C(=O)O)sc(C)c1-c1ccccc1,AC50,[1],"35.5 µM [falling, single point]"
O=C(c1cccc2ccccc12)C1CCCN(Cc2ccon2)C1 (stereo not given),AC50,[1],"35.5 µM [falling, single point]"
Cc1cc(/C=C2/C(=O)NC(=O)N(c3ccc(Br)cc3)C2=O)c(C)n1C,AC50,[1],"0.1 µM [rising, full curve, poor fit]"
C[C@H]1O[C@@H](O[C@H]2[C@@H](O)C[C@H](O[C@H]3[C@@H](O)C[C@H](O[C@H]4CC[C@@]5(C)[C@H](CC[C@@H]6[C@@H]5CC[C@]5(C)[C@@H](C7=CC(=O)OC7)CC[C@]65O)C4)O[C@@H]3C)O[C@@H]2C)C[C@H](O)[C@@H]1O,AC50,[2],"1.84 µM [rising, full curve]"
CCN(CC)CCN=Cc1c(O)n(C2CCCCCC2)c(=O)[nH]c1=O,AC50,[1],"29.1 µM [rising, single point]"
CNS(=O)(=O)c1ccc(-c2ccc(C=C3C(=O)NC(=O)NC3=O)o2)cc1,AC50,[1],"15.8 µM [falling, single point]"
Cc1cc(NC(=O)COC(=O)c2c(C)nn(Cc3ccccc3Cl)c2Cl)no1,AC50,[1],"7.31 µM [falling, single point]"
O=C(Nc1cccc(OC(=O)N2CCCCC2)c1)N1CCCCC1,AC50,[1],"0.116 µM [falling, full curve, poor fit]"

# Another view of some results above.
smiles	measurement	setting	value
C[C@H]1O[C@@H](O[C@H]2[C@@H](O)C[C@H](O[C@H]3[C@@H](O)C[C@H](O[C@H]4CC[C@@]5(C)[C@H](CC[C@@H]6[C@@H]5CC[C@]5(C)[C@@H](C7=CC(=O)OC7)CC[C@]65O)C4)O[C@@H]3C)O[C@@H]2C)C[C@H](O)[C@@H]1O	AC50	[2]	1.84 µM [rising, full curve]
CCN(CC)CCN=Cc1c(O)n(C2CCCCCC2)c(=O)[nH]c1=O	AC50	[1]	29.1 µM [rising, single point]

# Two entries picked at random from the list so far:
smiles,measurement,setting,value
COc1ccc(C2NCc3ccc4c(c3-n3cccc32)OCO4)cc1O (stereo not given),AC50,[1],"18.4 µM [falling, single point]"
O=c1[nH]c(=O)n(-c2cccc(F)c2)c(O)c1/C=C1\C=Nc2ccccc21,AC50,[1],"14.1 µM [falling, single point]"
